Test results as given in article PMC8324795.
Results are given in words; binding and its absence hold for the method and conditions named. In cells and extracts the contact can be indirect. Here binding means that the protein was enriched with, or labelled near, the bait; the list need not be complete. Tags and fused reporters may be left off the sequences shown.

Chains of the proteins cited; added tags and fusions are not shown.
UniProt O75396: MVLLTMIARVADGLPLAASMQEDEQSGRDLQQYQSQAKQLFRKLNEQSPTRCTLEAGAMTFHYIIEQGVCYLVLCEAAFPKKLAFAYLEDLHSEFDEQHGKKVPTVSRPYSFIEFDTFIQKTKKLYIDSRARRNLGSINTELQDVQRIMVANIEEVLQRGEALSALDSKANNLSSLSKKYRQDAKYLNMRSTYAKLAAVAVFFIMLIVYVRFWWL
UniProt P61081: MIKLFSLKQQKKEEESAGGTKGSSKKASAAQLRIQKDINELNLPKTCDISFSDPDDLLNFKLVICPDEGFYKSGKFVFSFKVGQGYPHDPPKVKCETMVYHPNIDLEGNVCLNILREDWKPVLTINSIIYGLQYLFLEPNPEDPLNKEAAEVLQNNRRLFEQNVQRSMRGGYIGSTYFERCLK

Biological target: T1, FLAG-tagged FKBP51 (FK506-binding protein 51), expressed in HEK293 cells (UniProt Q13451)
T1 sequence: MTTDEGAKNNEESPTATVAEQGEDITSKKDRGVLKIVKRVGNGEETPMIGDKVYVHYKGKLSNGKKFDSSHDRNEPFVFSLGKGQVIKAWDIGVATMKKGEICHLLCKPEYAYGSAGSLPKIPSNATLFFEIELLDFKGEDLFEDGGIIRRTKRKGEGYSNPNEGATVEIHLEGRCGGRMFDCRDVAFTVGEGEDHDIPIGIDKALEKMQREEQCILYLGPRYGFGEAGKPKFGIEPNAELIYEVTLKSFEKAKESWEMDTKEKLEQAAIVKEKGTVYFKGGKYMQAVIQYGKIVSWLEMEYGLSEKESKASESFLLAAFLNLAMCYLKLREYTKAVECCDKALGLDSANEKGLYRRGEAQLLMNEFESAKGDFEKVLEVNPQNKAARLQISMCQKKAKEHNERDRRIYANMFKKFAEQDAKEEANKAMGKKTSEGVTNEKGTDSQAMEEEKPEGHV
Assay: affinity purification with mass spectrometry; HEK cells transfected with FLAG-tagged FKBP51 or FLAG control vector; FLAG IP 48 h after transfection, SDS gel, in-gel trypsin digestion, LC-MS/MS; proteins found in all four replicates counted as interactors

binding	Substance
binds	SEC22B in HEK293 cells (hit of the FKBP51 interactome) (from UniProt O75396 1-215)
binds	UBC12 in HEK293 cells (hit of the FKBP51 interactome) (from UniProt P61081 1-183)
